From PMC7136618, “Defective nucleotide-dependent assembly and membrane fusion in Mfn2 CMT2A variants improved by Bax” (Life Science Alliance, 2020)
Results are given in words; binding and its absence hold for the method and conditions named. Binding seen in cells or lysates may run through a third protein. Some entries that bind do so weakly or less than the wild type. Tags and fused reporters may be left off the sequences shown.

T1: Mfn2^A383V with a C-terminal 3×FLAG tag (UniProt Q80U63)
T1 sequence: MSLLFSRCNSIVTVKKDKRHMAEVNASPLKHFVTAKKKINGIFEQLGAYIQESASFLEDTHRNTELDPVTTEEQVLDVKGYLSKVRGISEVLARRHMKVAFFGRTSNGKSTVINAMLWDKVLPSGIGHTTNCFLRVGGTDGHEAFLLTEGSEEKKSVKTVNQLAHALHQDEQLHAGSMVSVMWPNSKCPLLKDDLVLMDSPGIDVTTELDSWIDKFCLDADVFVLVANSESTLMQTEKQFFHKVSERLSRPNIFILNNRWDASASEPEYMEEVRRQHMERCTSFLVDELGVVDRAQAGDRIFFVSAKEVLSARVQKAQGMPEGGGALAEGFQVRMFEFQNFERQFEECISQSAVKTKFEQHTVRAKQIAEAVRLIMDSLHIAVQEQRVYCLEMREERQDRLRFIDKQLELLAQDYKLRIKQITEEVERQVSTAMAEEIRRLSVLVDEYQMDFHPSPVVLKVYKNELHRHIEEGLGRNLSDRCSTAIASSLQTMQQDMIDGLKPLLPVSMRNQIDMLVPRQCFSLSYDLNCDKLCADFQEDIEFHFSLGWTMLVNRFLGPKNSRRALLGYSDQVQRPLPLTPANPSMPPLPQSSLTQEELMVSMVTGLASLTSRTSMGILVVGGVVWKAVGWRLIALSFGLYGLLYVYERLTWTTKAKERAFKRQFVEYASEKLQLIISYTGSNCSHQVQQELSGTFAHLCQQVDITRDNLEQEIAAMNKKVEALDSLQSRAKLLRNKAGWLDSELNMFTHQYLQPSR

T2: Mfn2^Q386P with a C-terminal 3×FLAG tag (UniProt Q80U63)
T2 sequence: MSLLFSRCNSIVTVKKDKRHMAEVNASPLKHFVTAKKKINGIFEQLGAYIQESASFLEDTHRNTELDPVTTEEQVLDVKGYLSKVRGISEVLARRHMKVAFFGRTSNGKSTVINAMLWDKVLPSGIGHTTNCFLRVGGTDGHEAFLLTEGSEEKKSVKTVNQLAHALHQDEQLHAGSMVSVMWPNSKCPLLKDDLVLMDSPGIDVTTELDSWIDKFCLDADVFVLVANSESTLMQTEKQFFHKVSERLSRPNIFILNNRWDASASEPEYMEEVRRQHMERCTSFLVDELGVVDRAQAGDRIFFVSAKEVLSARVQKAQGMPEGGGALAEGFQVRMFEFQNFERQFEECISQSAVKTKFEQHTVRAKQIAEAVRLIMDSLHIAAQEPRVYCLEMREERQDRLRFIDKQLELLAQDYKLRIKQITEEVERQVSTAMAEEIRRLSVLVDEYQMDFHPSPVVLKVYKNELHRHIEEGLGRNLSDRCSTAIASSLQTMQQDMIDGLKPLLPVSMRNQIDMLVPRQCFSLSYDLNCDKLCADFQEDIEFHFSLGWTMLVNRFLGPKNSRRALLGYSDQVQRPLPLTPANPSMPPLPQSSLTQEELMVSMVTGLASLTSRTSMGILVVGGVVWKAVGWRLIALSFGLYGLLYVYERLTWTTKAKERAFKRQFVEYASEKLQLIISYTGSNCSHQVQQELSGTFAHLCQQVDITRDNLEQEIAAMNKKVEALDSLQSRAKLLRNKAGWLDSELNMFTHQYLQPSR

T3: Mfn2^WT with a C-terminal 3×FLAG tag (UniProt Q80U63)
T3 sequence: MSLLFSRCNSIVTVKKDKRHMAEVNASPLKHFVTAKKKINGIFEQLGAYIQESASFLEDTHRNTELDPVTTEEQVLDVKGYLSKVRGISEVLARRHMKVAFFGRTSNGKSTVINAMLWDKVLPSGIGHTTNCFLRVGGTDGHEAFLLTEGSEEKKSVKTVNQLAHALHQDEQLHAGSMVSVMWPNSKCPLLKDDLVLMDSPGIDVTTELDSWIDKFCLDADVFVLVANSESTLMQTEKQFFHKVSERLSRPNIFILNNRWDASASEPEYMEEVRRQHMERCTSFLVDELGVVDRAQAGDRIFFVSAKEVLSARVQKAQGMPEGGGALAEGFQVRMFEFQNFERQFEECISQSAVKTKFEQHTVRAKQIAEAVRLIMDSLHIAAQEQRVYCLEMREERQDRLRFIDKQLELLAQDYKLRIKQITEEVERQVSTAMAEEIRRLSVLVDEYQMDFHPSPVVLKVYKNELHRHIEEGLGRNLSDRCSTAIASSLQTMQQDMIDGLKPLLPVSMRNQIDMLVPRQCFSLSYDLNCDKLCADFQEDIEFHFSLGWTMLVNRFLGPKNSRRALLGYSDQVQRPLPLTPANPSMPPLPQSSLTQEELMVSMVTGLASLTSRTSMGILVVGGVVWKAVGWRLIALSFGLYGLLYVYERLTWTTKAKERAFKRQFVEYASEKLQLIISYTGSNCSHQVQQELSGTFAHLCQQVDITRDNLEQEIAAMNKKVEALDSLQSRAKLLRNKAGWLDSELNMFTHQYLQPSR


Key:
Assay in all cases: co-IP; two populations of isolated mitochondria (Mfn1 + Mfn2-FLAG; Mfn1-eGFP + Mfn2), 50 μg each, mixed, incubated at 37°C for 30 min with BeF3 with or without 2 mM GDP in fusion buffer; lysed in 1.5% DDM; anti-FLAG (DYKDDDDK) magnetic beads; blots with α-Mfn1 and α-Mfn2; endogenous Mfn1 is in cis, Mfn1-eGFP and endogenous Mfn2 are in trans to Mfn2-FLAG
[1] = molecular target: T1, Mfn2^A383V with a C-terminal 3×FLAG tag
[2] = molecular target: T2, Mfn2^Q386P with a C-terminal 3×FLAG tag
[3] = molecular target: T3, Mfn2^WT with a C-terminal 3×FLAG tag

binding [1]	binding [2]	binding [3]	Binder
binds	binds	binds	endogenous Mfn1 (protein, UniProt Q811U4 1-741) MAETVSPLKHFVLAKKAITAIFGQLLEFVTEGSHFVEATYRNPELDRIASEDDLVEIQGYRNKLAVIGEVLSRRHMKVAFFGRTSSGKSSVINAMLWDKVLPSGIGHTTNCFLSVEGTDGDKAYLMTEGSDEKKSVKTVNQLAHALHMDKDLKAGCLVHVFWPKAKCALLRDDLVLVDSPGTDVTTELDIWIDKFCLDADVFVLVANSESTLMNTEKHFFHKVNERLSKPNIFILNNRWDASASEPEYMEDVRRQHMERCLHFLVEELKVVSPSEARNRIFFVSAKEVLNSRKHKAQGMPEGGGALAEGFQARLQEFQNFEQTFEECISQSAVKTKFEQHTIRAKQILDTVKNILDSVNVAAAEKRVYSMEEREDQIDRLDFIRNQMNLLTLDVKKKIKEVTEEVANKVSCAMTDEICRLSVLVDEFCSEFHPTPSVLKVYKSELNKHIEDGMGRNLADRCTNEVNASILQSQQEIIENLKPLLPAGIQNKLHTLIPCKKFDLSYDLNCHKLCSDFQEDIVFRFSLGWSSLVHRFLGSTNAQRVLLGLSEPIFQVPRSLASTPTAPSNPAAPDNAAQEELMITLITGLASLTSRTSMGIIVVGGVIWKTVGWKLISVTLSMYGALYLYERLTWTTRAKERAFKQQFVNYATEKLQMIVSFTSANCSHQVQQEMATTFARLCQQVDVTQKHLEEEIARLSKEIDQLEKIQNNSKLLRNKAVQLESELENFSKQFLHPSSGES
binds	binds	binds	Mfn1^WT-eGFP (protein, UniProt Q811U4 1-741) MAETVSPLKHFVLAKKAITAIFGQLLEFVTEGSHFVEATYRNPELDRIASEDDLVEIQGYRNKLAVIGEVLSRRHMKVAFFGRTSSGKSSVINAMLWDKVLPSGIGHTTNCFLSVEGTDGDKAYLMTEGSDEKKSVKTVNQLAHALHMDKDLKAGCLVHVFWPKAKCALLRDDLVLVDSPGTDVTTELDIWIDKFCLDADVFVLVANSESTLMNTEKHFFHKVNERLSKPNIFILNNRWDASASEPEYMEDVRRQHMERCLHFLVEELKVVSPSEARNRIFFVSAKEVLNSRKHKAQGMPEGGGALAEGFQARLQEFQNFEQTFEECISQSAVKTKFEQHTIRAKQILDTVKNILDSVNVAAAEKRVYSMEEREDQIDRLDFIRNQMNLLTLDVKKKIKEVTEEVANKVSCAMTDEICRLSVLVDEFCSEFHPTPSVLKVYKSELNKHIEDGMGRNLADRCTNEVNASILQSQQEIIENLKPLLPAGIQNKLHTLIPCKKFDLSYDLNCHKLCSDFQEDIVFRFSLGWSSLVHRFLGSTNAQRVLLGLSEPIFQVPRSLASTPTAPSNPAAPDNAAQEELMITLITGLASLTSRTSMGIIVVGGVIWKTVGWKLISVTLSMYGALYLYERLTWTTRAKERAFKQQFVNYATEKLQMIVSFTSANCSHQVQQEMATTFARLCQQVDVTQKHLEEEIARLSKEIDQLEKIQNNSKLLRNKAVQLESELENFSKQFLHPSSGES
